Results published in patent US20130259867A1.
No constants are given. Whether binding was seen depends on the method and setting. Some results given as binding are weak or reduced against the parent protein; the word gives no strength.

Sequences of proteins named here, by UniProt entry; tags and fusion partners are left off. Residues count along the entry.
UniProt P21860, residues 20-643: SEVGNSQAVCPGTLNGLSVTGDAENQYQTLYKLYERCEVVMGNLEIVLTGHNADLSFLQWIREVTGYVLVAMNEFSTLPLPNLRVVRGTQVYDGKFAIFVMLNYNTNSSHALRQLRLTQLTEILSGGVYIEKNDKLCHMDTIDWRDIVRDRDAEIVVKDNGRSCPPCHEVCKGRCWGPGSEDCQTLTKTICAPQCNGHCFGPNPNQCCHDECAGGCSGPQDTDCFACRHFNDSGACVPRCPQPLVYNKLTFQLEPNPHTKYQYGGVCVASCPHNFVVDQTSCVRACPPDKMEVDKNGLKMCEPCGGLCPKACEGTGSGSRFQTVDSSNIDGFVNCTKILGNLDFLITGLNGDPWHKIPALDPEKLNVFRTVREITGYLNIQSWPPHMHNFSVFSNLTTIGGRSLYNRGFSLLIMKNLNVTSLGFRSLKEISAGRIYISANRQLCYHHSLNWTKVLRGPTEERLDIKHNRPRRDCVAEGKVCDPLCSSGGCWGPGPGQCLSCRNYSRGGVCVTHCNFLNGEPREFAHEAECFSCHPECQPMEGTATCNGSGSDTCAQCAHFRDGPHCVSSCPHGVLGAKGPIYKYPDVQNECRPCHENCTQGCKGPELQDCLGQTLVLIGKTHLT

Tests used:
EGFR-ECD [1] = molecular target: EGFR-ECD (UniProt P00533); assay: plate binding assay (FIG. 1), OD read-out
HER3-ECD [2] = molecular target: HER3-ECD (UniProt P21860); assay: plate binding assay (FIG. 1), OD read-out
EGFR-ECD [3] = molecular target: EGFR-ECD (UniProt P00533); assay: competitive binding assay, immobilized EGFR-ECD, soluble HER3-ECD as competitor, OD read-out
HER3-ECD [4] = molecular target: HER3-ECD (UniProt P21860); assay: competitive binding assay, immobilized HER3-ECD, soluble EGFR-ECD as competitor, OD read-out

binding (EGFR-ECD [1]): binds
binding (HER3-ECD [2]): binds
binding (EGFR-ECD [3]): binds
binding (HER3-ECD [4]): binds
B1: MEHD7945A (bispecific antibody, V domains shown)
VH: EVQLVESGGGLVQPGGSLRLSCAASGFTLSGDWIHWVRQAPGKGLEWVGEISAAGGYTDYADSVKGRFTISADTSKNTAYLQMNSLRAEDTAVYYCARESRVSFEAAMDYWGQGTLVTVSS
VL: DIQMTQSPSSLSASVGDRVTITCRASQNIATDVAWYQQKPGKAPKLLIYSASFLYSGVPSRFSGSGSGTDFTLTISSLQPEDFATYYCQQSEPEPYTFGQGTKVEIKR
